Record: PubChem BioAssay AID1259254 (NCATS, 2017)

Screen: 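Gene knock-downs that lead to re-replication, shown by excess G2 DNA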 (primary screen)
Cell system: human HCT116 colorectal cancer cells
Knock-down reagent: single siRNA against human genes
Duration: 3 days
Detection: 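Nuclei stained with Hoechst and imaged; cell-cycle phase assigned by DNA content; G2 share scaled per plate, non-targeting siRNA 0%, GMNN siRNA 100%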
Direction: G2 robust z-score and G2 cells, % of GMNN control: higher = more G2 cells, more excess DNA replication; raw share of cells in G2: higher = larger share of cells with G2 DNA content
Rule for the call: 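An siRNA counts as active if its G2 robust z-score lies at least 5 MADs above the screen median; here such calls match roughly 38% of GMNN control or more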
The deposit covers about 59,000 reagents; this is an unselected part. Over the whole deposit, about 1,550 (2.6%) got an active call. 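G2 share is only a proxy for re-replication; each gene was hit by three separate siRNAs, and active genes were retested.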 Raw values are not corrected between plates. The numbers tell different reagents against one gene apart. Reagent sequences are not shown. The record does not give: the amount of reagent.

gene symbol	reagent	G2 robust z-score	G2 cells, % of GMNN control	raw share of cells in G2 (%)	Outcome
PAX2 (paired box 2)	1	3.5	27.6	15.6	inactive
PAX2 (paired box 2)	2	-0.994	-4.02	3.12	inactive
PAX2 (paired box 2)	3	-0.336	0.604	3.41	inactive
IPO9 (importin 9)	1	-0.504	-0.58	4.3	inactive
IPO9 (importin 9)	2	-0.943	-3.67	2.62	inactive
IPO9 (importin 9)	3	-0.514	-0.65	2.93	inactive
AFAP1L2 (actin filament associated protein 1 like 2)	1	-0.51	-0.618	3.9	inactive
AFAP1L2 (actin filament associated protein 1 like 2)	2	-0.0485	2.63	4.24	inactive
AFAP1L2 (actin filament associated protein 1 like 2)	3	-0.922	-3.52	1.34	inactive
GSK3A (glycogen synthase kinase 3 alpha)	1	-1.44	-7.15	3.25	inactive
GSK3A (glycogen synthase kinase 3 alpha)	2	-0.786	-2.56	4.55	inactive
GSK3A (glycogen synthase kinase 3 alpha)	3	0.163	4.12	5.48	inactive
ZNF436-AS1 (ZNF436 antisense RNA 1)	1	-0.263	1.12	4.2	inactive
ZNF436-AS1 (ZNF436 antisense RNA 1)	2	1.44	13.1	6.95	inactive
ZNF436-AS1 (ZNF436 antisense RNA 1)	3	0.749	8.24	5.94	inactive
NPDC1 (neural proliferation, differentiation and control 1)	1	-0.279	1	3.35	inactive
NPDC1 (neural proliferation, differentiation and control 1)	2	-1.03	-4.31	2.65	inactive
NPDC1 (neural proliferation, differentiation and control 1)	3	0.267	4.84	6.77	inactive
MS4A6E (membrane spanning 4-domains A6E)	1	-0.758	-2.36	4.83	inactive
MS4A6E (membrane spanning 4-domains A6E)	2	0.373	5.59	6.75	inactive
MS4A6E (membrane spanning 4-domains A6E)	3	-0.123	2.1	5.58	inactive
RYR1 (ryanodine receptor 1)	1	2.73	22.2	13.4	inactive
RYR1 (ryanodine receptor 1)	2	-0.201	1.55	5.31	inactive
RYR1 (ryanodine receptor 1)	3	0.273	4.88	6.28	inactive
INTS11 (integrator complex subunit 11)	1	-1.1	-4.79	4.33	inactive
INTS11 (integrator complex subunit 11)	2	1.54	13.8	9.39	inactive
INTS11 (integrator complex subunit 11)	3	-0.64	-1.53	3.69	inactive
SLC67A2	1	4.75	36.4	20.6	inactive
SLC67A2	2	-0.49	-0.481	4.02	inactive
SLC67A2	3	1.95	16.7	11	inactive
KHDRBS2	1	6.7	50.1	23	active
KHDRBS2	2	1.32	12.2	11.8	inactive
KHDRBS2	3	-0.921	-3.51	3.23	inactive
PLEKHB1 (pleckstrin homology domain containing B1)	1	-0.25	1.21	3.41	inactive
PLEKHB1 (pleckstrin homology domain containing B1)	2	-0.706	-2	3.56	inactive
PLEKHB1 (pleckstrin homology domain containing B1)	3	1.1	10.7	9.59	inactive
SUCLA2P1 (SUCLA2 pseudogene 1)	1	-0.476	-0.384	2.92	inactive
SUCLA2P1 (SUCLA2 pseudogene 1)	2	0.55	6.84	6.36	inactive
SUCLA2P1 (SUCLA2 pseudogene 1)	3	0.227	4.56	4.92	inactive
LEAP2 (liver enriched antimicrobial peptide 2)	1	-0.426	-0.0329	1.81	inactive
LEAP2 (liver enriched antimicrobial peptide 2)	2	1.09	10.7	8.37	inactive
LEAP2 (liver enriched antimicrobial peptide 2)	3	-0.0449	2.65	4.12	inactive
KDM4B (lysine demethylase 4B)	1	-1.67	-8.77	1.55	inactive
KDM4B (lysine demethylase 4B)	2	-0.407	0.106	4.18	inactive
KDM4B (lysine demethylase 4B)	3	-0.288	0.945	3.53	inactive
GCNT2 (glucosaminyl (N-acetyl) transferase 2 (I blood group))	1	0.342	5.38	5.57	inactive
GCNT2 (glucosaminyl (N-acetyl) transferase 2 (I blood group))	2	-0.984	-3.95	3.8	inactive
GCNT2 (glucosaminyl (N-acetyl) transferase 2 (I blood group))	3	-0.921	-3.51	3.93	inactive
TMED7 (transmembrane p24 trafficking protein 7)	1	1.74	15.2	9.67	inactive
TMED7 (transmembrane p24 trafficking protein 7)	2	-0.32	0.713	4.82	inactive
TMED7 (transmembrane p24 trafficking protein 7)	3	-0.827	-2.85	2.35	inactive
GCHFR (GTP cyclohydrolase I feedback regulator)	1	0.461	6.21	7.62	inactive
GCHFR (GTP cyclohydrolase I feedback regulator)	2	3.38	26.7	13.2	inactive
GCHFR (GTP cyclohydrolase I feedback regulator)	3	-0.62	-1.39	4.73	inactive
KMT5A (lysine methyltransferase 5A)	1	1.46	13.2	11.6	inactive
KMT5A (lysine methyltransferase 5A)	2	7.94	58.9	27.9	active
KMT5A (lysine methyltransferase 5A)	3	0.941	9.59	7.78	inactive
FLT1 (fms related receptor tyrosine kinase 1)	1	0.742	8.19	8.31	inactive
FLT1 (fms related receptor tyrosine kinase 1)	2	-0.139	1.99	6.08	inactive
FLT1 (fms related receptor tyrosine kinase 1)	3	-0.00258	2.95	5.06	inactive
SLC14A2	1	-0.774	-2.48	4.55	inactive
SLC14A2	2	0.0557	3.36	5.58	inactive
SLC14A2	3	0.237	4.64	5.99	inactive
CHST11 (carbohydrate sulfotransferase 11)	1	3.42	27.1	14.2	inactive
CHST11 (carbohydrate sulfotransferase 11)	2	1.98	16.9	13.6	inactive
CHST11 (carbohydrate sulfotransferase 11)	3	-1.1	-4.8	2.47	inactive
USP12 (ubiquitin specific peptidase 12)	1	-0.2	1.56	6.26	inactive
USP12 (ubiquitin specific peptidase 12)	2	-1.07	-4.54	2.98	inactive
USP12 (ubiquitin specific peptidase 12)	3	-0.292	0.91	4.6	inactive

Reformatted: entries from further up
| gene symbol | reagent | G2 robust z-score | G2 cells, % of GMNN control | raw share of cells in G2 (%) | Outcome |
| --- | --- | --- | --- | --- | --- |
| AFAP1L2 (actin filament associated protein 1 like 2) | 1 | -0.51 | -0.618 | 3.9 | inactive |
| AFAP1L2 (actin filament associated protein 1 like 2) | 2 | -0.0485 | 2.63 | 4.24 | inactive |
| AFAP1L2 (actin filament associated protein 1 like 2) | 3 | -0.922 | -3.52 | 1.34 | inactive |
| GSK3A (glycogen synthase kinase 3 alpha) | 1 | -1.44 | -7.15 | 3.25 | inactive |
| GSK3A (glycogen synthase kinase 3 alpha) | 2 | -0.786 | -2.56 | 4.55 | inactive |
| GSK3A (glycogen synthase kinase 3 alpha) | 3 | 0.163 | 4.12 | 5.48 | inactive |
| ZNF436-AS1 (ZNF436 antisense RNA 1) | 1 | -0.263 | 1.12 | 4.2 | inactive |
| ZNF436-AS1 (ZNF436 antisense RNA 1) | 2 | 1.44 | 13.1 | 6.95 | inactive |
